From PMC2686732, “Both Ca^2+ and Zn^2+ are essential for S100A12 protein oligomerization and function” (BMC Biochemistry, 2009)
These are yes or no findings as the source states them, for the method shown. Some results given as binding are weak or reduced against the parent protein; the word gives no strength.

Columns and labels:
[1] = target: Recombinant full-length human S100A12 (human) (UniProt P80511); assay: dynamic light scattering; data not shown; apo-, Ca2+- and Zn2+,Ca2+-S100A12; both purified
[2] = target: Recombinant full-length human S100A12 (human) (UniProt P80511); assay: pulsed field gradient NMR (translational diffusion); apo-, Ca2+- and Zn2+,Ca2+-S100A12, 0.3-0.5 mM, 10 mM Hepes/NaOH pH 6.5, 100 mM NaCl, 25 C; both purified
[3] = target: Recombinant full-length human S100A12 (human) (UniProt P80511); assay: NMR titration; 1H{15N}-HSQC of [U-15N] Ca2+-S100A12 (0.5 mM) titrated with ZnCl2; 10 mM Hepes/NaOH pH 6.5, 100 mM NaCl, 25 C; read-out is line broadening; both purified

Measured: binding

B1: Recombinant full-length human S100A12 (natural protein, UniProt P80511 1-92, looked up)
chain: MTKLEEHLEGIVNIFHQYSVRKGHFDTLSKGELKQLLTKELANTIKNIKDKAVIDEIFQGLDANQDEQVDFQEFISLVAIALKAAHYHTHKE
notes: S100A12, human, full length; expressed from a modified pQE60 vector with a stop codon inserted so that the protein has no histidine tag; Oligomeric state (dimer, tetramer, hexamer) depends on Ca2+ and Zn2+ in the sample; [U-15N] labelled for the NMR experiments; also called apo-S100A12; Ca2+-S100A12; source: E. coli, purified (Phenyl-Sepharose, ResQ ion exchange)
binds: all assays above
